In paper doi:10.1101/641977:
No constants are given. Whether binding was seen depends on the method and setting. In cells and extracts the contact can be indirect. These calls come from enrichment with a bait or labelling near it, and not all partners need be listed.

By UniProt entry, the sequences of proteins in these tests, tags left out. Where a name states a change or a piece, a line headed by the entry shows the natural chain unless it says otherwise. Chains listed by the source or under a name are the forms on record and can include a tag or linker.
FLAG-EZH2 (enhancer of zeste homolog 2), stably expressed in A375 cells (Q15910, form named): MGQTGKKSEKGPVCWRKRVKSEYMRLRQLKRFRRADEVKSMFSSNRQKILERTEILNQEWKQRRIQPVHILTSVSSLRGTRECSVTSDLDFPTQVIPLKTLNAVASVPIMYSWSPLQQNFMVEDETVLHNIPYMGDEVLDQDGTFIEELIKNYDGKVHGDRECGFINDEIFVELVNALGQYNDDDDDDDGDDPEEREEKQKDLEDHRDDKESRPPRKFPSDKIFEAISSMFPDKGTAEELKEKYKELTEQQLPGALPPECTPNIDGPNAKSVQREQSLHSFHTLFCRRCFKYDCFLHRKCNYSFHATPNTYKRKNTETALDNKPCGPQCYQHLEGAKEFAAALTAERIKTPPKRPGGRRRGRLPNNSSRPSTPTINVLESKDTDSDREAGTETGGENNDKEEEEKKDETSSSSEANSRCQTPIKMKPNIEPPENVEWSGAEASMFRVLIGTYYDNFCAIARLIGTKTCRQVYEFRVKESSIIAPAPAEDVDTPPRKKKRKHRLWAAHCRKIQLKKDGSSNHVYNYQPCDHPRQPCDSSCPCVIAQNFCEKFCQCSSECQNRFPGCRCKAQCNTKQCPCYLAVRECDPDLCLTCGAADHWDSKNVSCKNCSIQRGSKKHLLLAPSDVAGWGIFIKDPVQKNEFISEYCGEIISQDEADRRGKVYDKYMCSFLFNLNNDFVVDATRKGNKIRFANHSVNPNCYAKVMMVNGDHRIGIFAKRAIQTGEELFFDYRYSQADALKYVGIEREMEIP
UniProt Q01082: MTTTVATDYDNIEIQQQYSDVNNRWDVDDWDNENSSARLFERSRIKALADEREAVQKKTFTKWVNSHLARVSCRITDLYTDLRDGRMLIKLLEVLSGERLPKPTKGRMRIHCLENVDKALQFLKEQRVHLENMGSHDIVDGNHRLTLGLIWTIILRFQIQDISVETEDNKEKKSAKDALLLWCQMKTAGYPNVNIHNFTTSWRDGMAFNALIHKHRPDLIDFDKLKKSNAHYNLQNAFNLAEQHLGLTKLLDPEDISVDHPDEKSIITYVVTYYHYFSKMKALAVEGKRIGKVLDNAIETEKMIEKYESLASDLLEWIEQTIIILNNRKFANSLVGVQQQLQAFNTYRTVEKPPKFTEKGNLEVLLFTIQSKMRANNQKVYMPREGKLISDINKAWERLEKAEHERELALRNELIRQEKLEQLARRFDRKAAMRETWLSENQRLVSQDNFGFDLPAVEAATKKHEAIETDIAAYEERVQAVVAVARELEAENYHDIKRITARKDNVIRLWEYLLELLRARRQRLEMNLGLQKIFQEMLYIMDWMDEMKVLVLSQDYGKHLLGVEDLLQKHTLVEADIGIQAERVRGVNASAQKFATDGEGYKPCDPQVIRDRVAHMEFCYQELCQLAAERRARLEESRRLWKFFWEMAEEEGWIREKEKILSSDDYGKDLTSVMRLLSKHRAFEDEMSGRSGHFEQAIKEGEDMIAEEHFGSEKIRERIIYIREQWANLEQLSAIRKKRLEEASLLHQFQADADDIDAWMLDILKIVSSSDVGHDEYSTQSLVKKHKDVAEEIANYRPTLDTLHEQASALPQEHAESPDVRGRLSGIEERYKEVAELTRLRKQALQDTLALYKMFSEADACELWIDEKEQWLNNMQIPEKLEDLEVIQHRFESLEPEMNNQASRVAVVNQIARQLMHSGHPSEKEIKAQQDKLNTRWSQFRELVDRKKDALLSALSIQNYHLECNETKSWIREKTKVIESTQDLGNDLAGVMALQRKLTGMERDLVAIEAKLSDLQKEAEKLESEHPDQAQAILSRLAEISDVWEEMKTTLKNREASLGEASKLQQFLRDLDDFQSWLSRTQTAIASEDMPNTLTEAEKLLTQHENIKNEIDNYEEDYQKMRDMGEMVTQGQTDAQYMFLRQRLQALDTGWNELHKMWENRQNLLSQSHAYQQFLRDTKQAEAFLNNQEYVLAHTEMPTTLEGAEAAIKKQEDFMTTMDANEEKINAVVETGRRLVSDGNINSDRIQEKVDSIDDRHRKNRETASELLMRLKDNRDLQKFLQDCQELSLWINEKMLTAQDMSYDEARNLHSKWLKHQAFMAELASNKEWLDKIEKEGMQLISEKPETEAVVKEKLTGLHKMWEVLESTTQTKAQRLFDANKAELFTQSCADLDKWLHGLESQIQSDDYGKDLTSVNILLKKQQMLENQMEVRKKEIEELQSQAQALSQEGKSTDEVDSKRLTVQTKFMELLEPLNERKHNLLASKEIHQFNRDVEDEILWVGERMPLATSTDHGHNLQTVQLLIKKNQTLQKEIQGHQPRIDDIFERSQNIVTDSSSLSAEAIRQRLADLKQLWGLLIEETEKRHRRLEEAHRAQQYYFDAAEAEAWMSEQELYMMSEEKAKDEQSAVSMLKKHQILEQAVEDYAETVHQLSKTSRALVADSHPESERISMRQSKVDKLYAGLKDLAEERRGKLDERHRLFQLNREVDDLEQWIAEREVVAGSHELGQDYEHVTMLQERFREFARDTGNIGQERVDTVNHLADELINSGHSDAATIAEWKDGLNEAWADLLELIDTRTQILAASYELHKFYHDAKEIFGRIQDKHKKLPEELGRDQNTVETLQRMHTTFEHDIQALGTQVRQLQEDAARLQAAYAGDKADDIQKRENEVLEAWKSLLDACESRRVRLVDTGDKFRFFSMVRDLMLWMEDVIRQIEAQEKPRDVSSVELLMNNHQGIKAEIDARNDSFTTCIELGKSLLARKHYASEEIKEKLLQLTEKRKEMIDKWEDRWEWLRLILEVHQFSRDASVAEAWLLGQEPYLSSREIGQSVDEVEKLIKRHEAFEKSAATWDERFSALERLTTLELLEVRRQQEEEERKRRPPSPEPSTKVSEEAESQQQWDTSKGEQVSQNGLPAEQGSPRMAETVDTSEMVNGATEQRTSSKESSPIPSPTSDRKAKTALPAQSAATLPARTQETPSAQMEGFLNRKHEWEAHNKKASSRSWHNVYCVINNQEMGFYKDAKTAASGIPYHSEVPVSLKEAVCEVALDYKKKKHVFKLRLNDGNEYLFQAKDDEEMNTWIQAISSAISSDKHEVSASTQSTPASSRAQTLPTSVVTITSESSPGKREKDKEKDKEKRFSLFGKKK
UniProt Q93009: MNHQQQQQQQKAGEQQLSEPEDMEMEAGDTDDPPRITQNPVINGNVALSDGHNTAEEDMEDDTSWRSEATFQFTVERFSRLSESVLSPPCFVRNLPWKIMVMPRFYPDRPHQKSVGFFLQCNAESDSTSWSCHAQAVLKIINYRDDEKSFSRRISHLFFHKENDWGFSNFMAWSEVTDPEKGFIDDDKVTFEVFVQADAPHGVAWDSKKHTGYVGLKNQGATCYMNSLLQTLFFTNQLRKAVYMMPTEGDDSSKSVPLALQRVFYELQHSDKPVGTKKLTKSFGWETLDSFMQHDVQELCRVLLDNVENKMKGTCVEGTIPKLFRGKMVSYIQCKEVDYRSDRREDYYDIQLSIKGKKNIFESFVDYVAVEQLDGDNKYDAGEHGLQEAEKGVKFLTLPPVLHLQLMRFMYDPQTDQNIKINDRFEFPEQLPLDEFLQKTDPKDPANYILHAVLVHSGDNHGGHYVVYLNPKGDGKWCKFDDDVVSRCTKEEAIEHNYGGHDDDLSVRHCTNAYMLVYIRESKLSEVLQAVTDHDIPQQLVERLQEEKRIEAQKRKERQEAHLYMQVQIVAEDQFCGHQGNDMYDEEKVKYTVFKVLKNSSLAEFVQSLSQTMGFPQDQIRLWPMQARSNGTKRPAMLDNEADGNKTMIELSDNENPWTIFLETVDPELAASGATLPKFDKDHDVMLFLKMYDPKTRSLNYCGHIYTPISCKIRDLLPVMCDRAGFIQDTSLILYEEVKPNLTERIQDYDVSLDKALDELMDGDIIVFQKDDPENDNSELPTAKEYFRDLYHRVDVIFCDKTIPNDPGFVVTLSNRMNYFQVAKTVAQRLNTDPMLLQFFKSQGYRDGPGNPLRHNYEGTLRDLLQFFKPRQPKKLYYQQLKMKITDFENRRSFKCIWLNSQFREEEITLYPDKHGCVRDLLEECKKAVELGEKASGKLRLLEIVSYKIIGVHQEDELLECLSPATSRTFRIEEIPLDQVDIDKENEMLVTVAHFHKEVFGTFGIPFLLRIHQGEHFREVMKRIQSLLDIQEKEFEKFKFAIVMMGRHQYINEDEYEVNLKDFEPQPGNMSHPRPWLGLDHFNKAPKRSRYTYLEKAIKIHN

B1: OGT, endogenous (protein, UniProt O15294 1-1046)
chain: MASSVGNVADSTEPTKRMLSFQGLAELAHREYQAGDFEAAERHCMQLWRQEPDNTGVLLLLSSIHFQCRRLDRSAHFSTLAIKQNPLLAEAYSNLGNVYKERGQLQEAIEHYRHALRLKPDFIDGYINLAAALVAAGDMEGAVQAYVSALQYNPDLYCVRSDLGNLLKALGRLEEAKACYLKAIETQPNFAVAWSNLGCVFNAQGEIWLAIHHFEKAVTLDPNFLDAYINLGNVLKEARIFDRAVAAYLRALSLSPNHAVVHGNLACVYYEQGLIDLAIDTYRRAIELQPHFPDAYCNLANALKEKGSVAEAEDCYNTALRLCPTHADSLNNLANIKREQGNIEEAVRLYRKALEVFPEFAAAHSNLASVLQQQGKLQEALMHYKEAIRISPTFADAYSNMGNTLKEMQDVQGALQCYTRAIQINPAFADAHSNLASIHKDSGNIPEAIASYRTALKLKPDFPDAYCNLAHCLQIVCDWTDYDERMKKLVSIVADQLEKNRLPSVHPHHSMLYPLSHGFRKAIAERHGNLCLDKINVLHKPPYEHPKDLKLSDGRLRVGYVSSDFGNHPTSHLMQSIPGMHNPDKFEVFCYALSPDDGTNFRVKVMAEANHFIDLSQIPCNGKAADRIHQDGIHILVNMNGYTKGARNELFALRPAPIQAMWLGYPGTSGALFMDYIITDQETSPAEVAEQYSEKLAYMPHTFFIGDHANMFPHLKKKAVIDFKSNGHIYDNRIVLNGIDLKAFLDSLPDVKIVKMKCPDGGDNADSSNTALNMPVIPMNTIAEAVIEMINRGQIQITINGFSISNGLATTQINNKAATGEEVPRTIIVTTRSQYGLPEDAIVYCNFNQLYKIDPSTLQMWANILKRVPNSVLWLLRFPAVGEPNIQQYAQNMGLPQNRIIFSPVAPKEEHVRRGQLADVCLDTPLCNGHTTGMDVLWAGTPMVTMPGETLASRVAASQLTCLGCLELIAKNRQEYEDIAVKLGTDLEYLKKVRGKVWKQRISSPLFNTKQYTMELERLYLQMWEHYAAGNKPDHMIKPVEVTESA

Each molecule was assayed against FLAG-EZH2 (enhancer of zeste homolog 2), stably expressed in A375 cells (UniProt Q15910) (assay: affinity purification with mass spectrometry).

Row | binding | Molecule
1 | binds | SPTBN1, endogenous (from UniProt Q01082 1-2364)
2 | binds | ubiquitin-specific protease 7 (USP7), endogenous (from UniProt Q93009 1-1102) (enzyme)
3 | binds | B1
